The text below walks through data of PMC12590467, “Accessory Subunit Regulates Thiyl Radical Formation in Benzylsuccinate Synthase” (Biochemistry, 2025).

The target in assay [1] is T1, Benzylsuccinate synthase α subunit (BSSα) (UniProt O68395).
T1 sequence: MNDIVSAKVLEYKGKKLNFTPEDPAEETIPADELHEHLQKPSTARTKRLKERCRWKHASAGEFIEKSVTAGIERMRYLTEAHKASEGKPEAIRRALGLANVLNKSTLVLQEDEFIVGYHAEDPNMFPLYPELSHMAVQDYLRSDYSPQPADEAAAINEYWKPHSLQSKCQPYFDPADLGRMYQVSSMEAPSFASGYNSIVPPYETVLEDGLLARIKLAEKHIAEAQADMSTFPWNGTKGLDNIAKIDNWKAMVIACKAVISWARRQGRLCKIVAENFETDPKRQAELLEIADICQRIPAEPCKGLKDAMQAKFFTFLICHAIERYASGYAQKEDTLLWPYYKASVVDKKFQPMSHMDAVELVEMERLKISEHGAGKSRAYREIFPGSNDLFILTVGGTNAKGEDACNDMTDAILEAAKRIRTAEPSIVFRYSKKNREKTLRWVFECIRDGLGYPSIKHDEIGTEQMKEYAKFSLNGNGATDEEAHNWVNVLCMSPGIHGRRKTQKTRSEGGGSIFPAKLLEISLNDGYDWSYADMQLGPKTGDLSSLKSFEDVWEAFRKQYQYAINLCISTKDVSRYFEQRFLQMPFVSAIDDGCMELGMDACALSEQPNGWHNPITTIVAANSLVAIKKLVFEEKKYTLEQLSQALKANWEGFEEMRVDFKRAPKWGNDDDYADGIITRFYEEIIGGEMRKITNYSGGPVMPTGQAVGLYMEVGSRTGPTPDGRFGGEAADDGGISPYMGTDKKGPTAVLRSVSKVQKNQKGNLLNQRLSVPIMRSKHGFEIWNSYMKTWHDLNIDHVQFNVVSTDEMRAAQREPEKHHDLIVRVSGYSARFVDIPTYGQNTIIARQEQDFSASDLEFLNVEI
In words: crystal structure; purified BSSαγ and purified BSSβ (50 mM HEPES pH 8.0, 300 mM NaCl) mixed in a 1:2 molar ratio, 20 mg/mL; sitting-drop vapor diffusion, anaerobic; 29% PEG 3350, 60 mM KCl, 100 mM Tris pH 8.5, 5 mM fumarate; both purified.

Substrate in assay [2]: T2, BSSαγ (benzylsuccinate synthase catalytic α subunit with accessory γ subunit) (UniProt O68395)
T2 sequence 1: T1 sequence
T2 sequence 2: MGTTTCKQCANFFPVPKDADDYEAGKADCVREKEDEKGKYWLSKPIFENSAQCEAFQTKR
The assay is described as above.

Results are given in words; binding and its absence hold for the method and conditions named. Some entries that bind do so weakly or less than the wild type.

B1: Benzylsuccinate synthase α subunit (BSSα) (enzyme, UniProt O68395 1-864)
chain: T1 sequence
As for B1, the binding result in assay [1] was “binds”.

B2: Benzylsuccinate synthase γ subunit (BSSγ) (protein, UniProt O68394 1-60)
chain: T2 sequence 2
Regarding B2, in assay [1], the binding entry is on record as “binds”.

B3: Benzylsuccinate synthase β subunit (BSSβ) (protein, UniProt O68396 1-81)
chain: MEGSNMETGQNLQNQPHTEVGTARPCRSCKWQTPDPTDPHRGQCTANRHAMGGVWKRWLRDVENTTCSRHEEGKLSFRDHV
In the case of B3, the binding result in assay [1] and in assay [2] was “binds” throughout.
